# Measured values reported in PubChem BioAssay AID2685 (National Center for Advancing Translational Sciences (NCATS), 2010).
# The other results are listed elsewhere or left out. The main result of the screen is listed elsewhere. These columns were measured beside it and carry no call. The list favours compounds with an active or inconclusive main result. The note in brackets gives the kind of curve behind each potency; many fits are weak.
# Experiment: qHTS Assay for Lipid Storage Modulators in Drosophila S3 Cells;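 as to cell number change: cells counted by Cell Tracker Red CMTPX staining in the red channel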
# Conditions: BODIPY lipid droplet fluorescence, 18-24 h; for cell number change: measured here: cell count max response, cells fed with added oleic acid
# Summary of the method: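 Laser-scanning cytometry quantifies lipid droplet accumulation (500–530 nm total intensity; droplet/cell object ratio) in oleic acid-fed (400 uM added) Drosophila S3 cells treated with a concentration series. 20 uM Triacsin C defined 100% inhibition.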
# [1] = measured here: cell number channel AC50, cells fed with added oleic acid
# [2] = measured here: lipid fluorescence (Fed channel) AC50, cells fed with added oleic acid
Structure (SMILES),cell number change [%],AC50 [1],AC50 [2]
CC1=C(C#N)C(NC(=O)C(C)(C)C)(C(F)(F)F)C(=O)N1 (stereo unspecified),-6.21,"0.651 µM [falling, single point]",
O=C(OCC(=O)N1CCN(c2ccccc2)CC1)c1ccc(O)cc1O,-1.67,,"0.00411 µM [rising, full curve, poor fit]"
Cc1ccc2nc3c(c(C(=O)O)c2c1)CCC3,1.52,,
CCOc1ccc(-n2cc(C(=O)Nc3cccc(OC)c3)c3cc(OC)c(OC)cc3c2=O)cc1,38.6,"0.517 µM [rising, full curve]","6.51 µM [rising, single point]"
O=C1c2ccccc2C(=O)N1CN(C(=O)c1ccccc1[N+](=O)[O-])c1ccc(F)cc1,0.481,"6.51 µM [rising, single point]","0.0103 µM [falling, full curve, poor fit]"
COc1cc(C2C(C(=O)c3cc4ccccc4o3)=C(O)C(=O)N2CCN2CCOCC2)ccc1OCCC(C)C (stereo unspecified),2.21,,"6.51 µM [falling, single point]"
C=CCc1cccc2cc(C(=O)N3CCN(C(=O)c4ccccc4)CC3)c(=O)oc12,-23.1,,
Nc1nc(-c2ccccc2)cc(-c2ccccc2O)n1,37.3,"29.1 µM [rising, single point]",
CC1=CC(C)(C)Nc2ccc(OC(=O)CN3C(=O)c4cccc5cccc(c45)C3=O)cc21,-3.55,,"1.64 µM [falling, partial curve]"
COc1ccc(Oc2coc3cc(OCC(=O)N4CCCCC4)ccc3c2=O)cc1,-47.2,"0.82 µM [falling, full curve, poor fit]","32.6 µM [rising, partial curve, poor fit]"
CC1CCN(C(=O)Cn2c(SCC(=O)Nc3nccs3)nc3ccccc32)CC1,24.9,,"0.58 µM [rising, full curve]"
N#Cc1ccc(CN2CCN(C(=O)CCNS(=O)(=O)c3ccc(F)c(F)c3)CC2)cc1,7.09,,"32.6 µM [falling, single point]"
COC(=O)c1ccccc1S(=O)(=O)N1CCC(C(=O)N2CCC2)CC1,11.4,,"6.51 µM [falling, partial curve, poor fit]"
COc1ccc(CNC(=O)CSc2nc3ccc(OC)cc3[nH]2)cc1,-8.42,,"29.1 µM [falling, single point]"
Cc1cc(O)c(NC(=S)NC(=O)c2ccc(-c3ccc(Cl)cc3)o2)cc1C,-87.5,"16.4 µM [falling, partial curve]","14.6 µM [falling, partial curve]"
O=C(NCCCn1ccnc1)c1ccc(Cl)cc1,20.3,,"2.91 µM [rising, partial curve, poor fit]"
Cc1ccc(Nc2cc(=O)n(C3CCCCC3)c(=O)[nH]2)cc1C,,,"20.6 µM [falling, partial curve, poor fit]"
CC1(NC(=O)Cc2ccc(S(=O)(=O)N3CCOCC3)s2)CCS(=O)(=O)C1 (stereo unspecified),-19.3,,

# Only AC50 [2] and AC50 [1], for some of the entries so far:
Structure (SMILES)	AC50 [2]	AC50 [1]
CCOc1ccc(-n2cc(C(=O)Nc3cccc(OC)c3)c3cc(OC)c(OC)cc3c2=O)cc1	6.51 µM [rising, single point]	0.517 µM [rising, full curve]
COc1cc(C2C(C(=O)c3cc4ccccc4o3)=C(O)C(=O)N2CCN2CCOCC2)ccc1OCCC(C)C (stereo unspecified)	6.51 µM [falling, single point]	
CC1CCN(C(=O)Cn2c(SCC(=O)Nc3nccs3)nc3ccccc32)CC1	0.58 µM [rising, full curve]	

# Continuation.

Structure (SMILES),cell number change [%],AC50 [1],AC50 [2]
Cc1noc(C)c1CSc1ccccc1C(=O)O,-12.7,,"29.1 µM [falling, single point]"
COc1cccc(-c2nc3n(n2)C(c2ccc4c(c2)OCO4)C(C(N)=O)=C(C)N3)c1 (stereo unspecified),,,"16.4 µM [rising, single point]"
O=C(/C=C/c1ccccc1)NC(=S)Nc1ccccc1O,2.95,,
CCN1C(=O)[C@@H]2[C@@H](c3ccc(-c4ccc(OC)cc4)cc3)N3CCCC[C@@]3(C(=O)OC)[C@@H]2C1=O,-23.7,,"0.326 µM [rising, partial curve, poor fit]"
COc1ccc(C2=NN(CN3C(=O)C(=O)c4ccccc43)C(c3ccc(Br)cc3)C2)cc1 (stereo unspecified),80,"2.59 µM [rising, partial curve]","9.2 µM [rising, partial curve]"
CSc1cccc(-n2cc(-c3ccc4c(c3)OCO4)[nH]c2=O)c1,-1.16,,"2.31 µM [falling, partial curve]"
Cc1c(-c2ccccc2)n[nH]c1C(=O)N=Nc1c(O)[nH]c2ccccc12,-27.4,"0.0259 µM [rising, partial curve]",
Cc1noc(C)c1COc1ccc(C(=O)N2CCN(S(=O)(=O)c3ccc(Cl)cc3)CC2)cc1,-77.5,"11.6 µM [falling, partial curve, poor fit]","0.731 µM [falling, partial curve, poor fit]"
O=c1cc(Cl)c(-c2ccccc2)n[nH]1,-65.7,"25.9 µM [falling, partial curve, poor fit]","23.1 µM [falling, partial curve]"
COc1ccc(NC(=O)C2C3C=CC4(O3)C2C(=O)N(CCN2CCCCC2)C4C(=O)NC2CCCC(C)C2C)cc1 (stereo unspecified),,,"0.58 µM [falling, single point]"
COc1ccc(C)cc1S(=O)(=O)NC1CCCCC1,-2.96,,"0.092 µM [falling, full curve, poor fit]"
Cc1ccc(C)c(S(=O)(=O)N2C(=S)NC(=O)C2CC(C)C)c1 (stereo unspecified),3.02,,"23.1 µM [rising, partial curve, poor fit]"
COc1ccccc1NC(=O)c1ccc2c(c1)CCN2S(C)(=O)=O,10.3,,"0.116 µM [rising, full curve, poor fit]"
O=C(Cc1cccc2ccccc12)NN1C(=O)C2C(C1=O)C1C=CC2C12CC2 (stereo unspecified),-17.9,,"16.4 µM [falling, single point]"
Cc1nc(-c2ccncc2)nc(NCCNc2ncccc2C(F)(F)F)c1Cl,-9.55,"0.13 µM [rising, partial curve, poor fit]",
COc1ccc(-c2nn(-c3ccccc3)cc2C(=O)NCC(c2cccs2)N2CCOCC2)cc1 (stereo unspecified),34.8,"1.84 µM [rising, full curve]","2.06 µM [rising, partial curve]"
O=C(O)c1cccc(-c2ccc(/C=c3/sc4nc5ccccc5n4c3=O)o2)c1,-1.44,,"32.6 µM [falling, single point]"
